Drawing on patent publication US12066428B2, “Cell-substrate impedance monitoring of cancer cells” (Agilent Technologies, Inc., priority 2016, dated 2024), this text covers IC50 for 1 molecule.

What all share (experiment): cells
For assay [1], the system named is HUEVEC cells. As to conditions: 48 h, read-out: IC-50 RE-CES.
Another assay has as its system HT1080 cells. The following applies: Homo sapiens, HT-1080, 48 h, read-out: IC-50 RE-CES.
The subject of the next assay is NIH3T3 cells. The following applies: Mus musculus, NIH3T3, 48 h, read-out: IC-50 RE-CES.
Assay [2] concerns HUEVEC cells. The following applies: 48 h, read-out: IC-50 MTT Assay.
The subject of assay [3] is HepG2 cells. The following applies: Homo sapiens, HepG2, 48 h, read-out: IC-50 RE-CES.
The test system of assay [4] is HepG2 cells. As to conditions: Homo sapiens, HepG2, 48 h, read-out: IC-50 MTT Assay.

Like-named read-outs stand apart in the source and are kept apart here.

On to `CC/C(=C(\c1ccccc1)c1ccc(OCCN(C)C)cc1)c1ccccc1` [Tamoxifen], for which the IC50 in the assay with HUEVEC cells [1] worked out at 7.5 µM; in the assay with HT1080 cells, 22.4 µM; in the assay on NIH3T3 cells it was 16 µM; in the assay on HUEVEC cells [2] it was 8 µM; in the assay on HepG2 cells [3], 15.2 µM; in the assay with HepG2 cells [4], 16.2 µM.
